Assay results taken from PubChem BioAssay AID180 (DTP/NCI, 2004).
The list does not hold the whole screen: it gathers tests that were run many times, whatever their T/C, doses with no T/C, and many T/C values between a quarter and a half above the control. Other doses and runs of a compound stand elsewhere. T/C: endpoint of the treated group in % of that of the vehicle group. Schedules are NCI's codes, read here as Q, the interval in days (D) or hours (H), X, the number of doses. Some T/C values are followed by the survivors on the day toxicity was checked, most often the fifth; where none is given, no animal had died by that day. Some entries were tested several times; the results are listed from low to high. Some doses have a count of surviving animals in place of a T/C: the source files T/C as zero there, which appears to mark a toxic dose or a test without result, not a measured value. Counts of survivors are from the toxicity check (mostly the fifth day) where no day follows; animals may have died later. Some schedule codes hold Z or #, which are not explained here.

Tested on: BDF1 mice, Adenocarcinoma 755 s.c., tumor weight T/C
Experiment: NCI In Vivo Anticancer Drug Screen. Data for tumor model Adenocarcinoma 755 (subcutaneous) in B6D2F1 (BDF1) mice
Conditions: T/C endpoint: mean tumor weight, higher T/C = larger tumour; for T/C: evaluated on day 12
Procedure, shortened: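 Tumor-bearing mice receive test compound while controls get vehicle alone. Antitumor effect is scored from survival or tumor dimensions as a T/C quotient.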

[1] = dose: 30.0 mg/kg/injection, schedule: Q01DX011 (ip), vehicle: carboxymethylcellulose (CMC)

SMILES: [I][Hg][CH2]C1COC([CH2][Hg][I])CO1 (configuration not stated)
- survivor count (dose: 10.0 mg/kg/injection, schedule: Q#A X022 (ip), vehicle: carboxymethylcellulose (CMC)): 2 of 10
- survivor count (dose: 15.0 mg/kg/injection, schedule: Q01DX011 (ip), vehicle: methylcellulose (MC)): 5 of 10
- T/C (dose: 35.0 mg/kg/injection, schedule: Q01DX001 (ip), vehicle: carboxymethylcellulose (CMC)): 126 % of control
- survivor count (dose: 55.0 mg/kg/injection, schedule: Q07DX002 (ip), vehicle: carboxymethylcellulose (CMC)): 6 of 10
- survivor count (dose: 60.0 mg/kg/injection, schedule: Q01DX011 (ip), vehicle: methylcellulose (MC)): 6 of 10
- survivor count (dose: 75.0 mg/kg/injection, schedule: Q03DX004 (ip), vehicle: carboxymethylcellulose (CMC)): 0 of 10
- survivor count (dose: 85.0 mg/kg/injection, schedule: Q01DX001 (ip), vehicle: carboxymethylcellulose (CMC)): 6 of 10
- survivor count (dose: 85.0 mg/kg/injection, schedule: Q07DX002 (ip), vehicle: carboxymethylcellulose (CMC)): 1 of 10
- survivor count (dose: 100.0 mg/kg/injection, schedule: Q01DX011 (oral), vehicle: methylcellulose (MC)): 4 of 10
- survivor count (dose: 125.0 mg/kg/injection, schedule: Q01DX001 (ip), vehicle: carboxymethylcellulose (CMC)): 1 of 10 and 5 of 10
- survivor count (dose: 125.0 mg/kg/injection, schedule: Q07DX002 (ip), vehicle: carboxymethylcellulose (CMC)): 0 of 10
- survivor count (dose: 160.0 mg/kg/injection, schedule: Q01DX011 (im), vehicle: carboxymethylcellulose (CMC)): 6 of 12
- survivor count (dose: 200.0 mg/kg/injection, schedule: Q01DX011 (oral), vehicle: methylcellulose (MC)): 1 of 10
- survivor count (dose: 240.0 mg/kg/injection, schedule: Q01DX011 (im), vehicle: carboxymethylcellulose (CMC)): 1 of 10 and 3 of 12
- survivor count (dose: 360.0 mg/kg/injection, schedule: Q01DX011 (im), vehicle: carboxymethylcellulose (CMC)): 3 of 12
- survivor count (dose: 360.0 mg/kg/injection, schedule: Q01DX011 (sc), vehicle: carboxymethylcellulose (CMC)): 6 of 12

SMILES: COc1cc(-c2ccc(Nc3ccccc3C(=O)O)c(OC)c2)ccc1Nc1ccccc1C(=O)O
- survivor count (dose: 200.0 mg/kg/injection, schedule: Q01DX011 (ip), vehicle: saline): 0 of 10

SMILES: CC[C@]1(O)C[C@H]2CN(CCc3c([nH]c4ccccc34)[C@@](C(=O)OC)(c3cc4c(cc3OC)N(C=O)[C@H]3[C@@](O)(C(=O)OC)[C@H](OC(C)=O)[C@]5(CC)C=CCN6CC[C@]43[C@@H]65)C2)C1
- survivor count (dose: 0.5 mg/kg/injection, schedule: Q01DX011 (ip), vehicle: saline): 5 of 10

SMILES: CS(=O)(=O)c1nc(N)nc2nc[nH]c12
- survivor count [1]: 3 of 10

SMILES: C=C(C)[C@H]1Cc2c(ccc3c2O[C@@H]2COc4cc(OC)c(OC)cc4[C@@H]2C3=O)O1
- survivor count (dose: 3.0 mg/kg/injection, schedule: Q01DX011 (ip), vehicle: other): 2 of 10

SMILES: CCCCn1cnc2c(SC(C)C)nc(N)nc21
- survivor count (dose: 50.0 mg/kg/injection, schedule: Q01DX011 (ip), vehicle: methylcellulose (MC)): 2 of 10

SMILES: CN(C)c1ccc(/C=C\c2ccnc3ccccc23)cc1
- T/C (dose: 50.0 mg/kg/injection, schedule: Q01DX011 (ip), vehicle: water): 129 % of control
- survivor count (dose: 200.0 mg/kg/injection, schedule: Q01DX011 (ip), vehicle: water): 0 of 10

SMILES: N#[N+]c1nc2ncnc(N)c2[nH]1
- survivor count (dose: 50.0 mg/kg/injection, schedule: Q01DX011 (ip), vehicle: saline): 2 of 12

SMILES: CC(=O)[C@@]1(O)CC[C@H]2[C@@H]3C[C@H](C)C4=CC(=O)CC[C@]4(C)[C@H]3[C@@H](O)C[C@@]21C
- T/C (dose: 112.0 mg/kg/injection, schedule: Q01DX011 (sc), vehicle: steroid suspending solution): 19 [11 of 12 alive], 34, 47, 48 % of control [9 of 10 alive]
- T/C (dose: 225.0 mg/kg/injection, schedule: Q01DX011 (sc), vehicle: steroid suspending solution): 9, 13 [9 of 10 alive], 29, 84 % of control
- survivor count (dose: 450.0 mg/kg/injection, schedule: Q01DX011 (sc), vehicle: steroid suspending solution): 5 of 10 and 7 of 12
- survivor count (dose: 900.0 mg/kg/injection, schedule: Q01DX011 (sc), vehicle: steroid suspending solution): 5 of 12

SMILES: O=C1C(=O)C(Cl)=C(Cl)C(Cl)=C1Cl
- T/C [1]: 139 % of control [9 of 10 alive]

SMILES: OCCNc1ncnc2c1ncn2C1CCCO1 (configuration not stated)
- T/C (dose: 25.0 mg/kg/injection, schedule: Q01DX011 (ip), vehicle: saline): 125 % of control

SMILES: CC(=O)NC1=C(N2CC2)C(=O)C(NC(C)=O)=C(N2CC2)C1=O
- T/C (dose: 0.01 mg/kg/injection, schedule: Q01DX011 (ip), vehicle: methylcellulose (MC)): 128 % of control

SMILES: O=C(O)c1cccc2c3c(cc([N+](=O)[O-])c12)CCCC3
- survivor count (dose: 0.37 mg/kg/injection, schedule: Q01DX011 (ip), vehicle: carboxymethylcellulose (CMC)): 6 of 10
